Laboratory results taken from publication PMC8390506.
Results are given in words; binding and its absence hold for the method and conditions named.

Target: T1, Targeting Protein for XKlp2 (TPX2), full length, wild type (Xenopus laevis), Q6NUF4
T1 chain: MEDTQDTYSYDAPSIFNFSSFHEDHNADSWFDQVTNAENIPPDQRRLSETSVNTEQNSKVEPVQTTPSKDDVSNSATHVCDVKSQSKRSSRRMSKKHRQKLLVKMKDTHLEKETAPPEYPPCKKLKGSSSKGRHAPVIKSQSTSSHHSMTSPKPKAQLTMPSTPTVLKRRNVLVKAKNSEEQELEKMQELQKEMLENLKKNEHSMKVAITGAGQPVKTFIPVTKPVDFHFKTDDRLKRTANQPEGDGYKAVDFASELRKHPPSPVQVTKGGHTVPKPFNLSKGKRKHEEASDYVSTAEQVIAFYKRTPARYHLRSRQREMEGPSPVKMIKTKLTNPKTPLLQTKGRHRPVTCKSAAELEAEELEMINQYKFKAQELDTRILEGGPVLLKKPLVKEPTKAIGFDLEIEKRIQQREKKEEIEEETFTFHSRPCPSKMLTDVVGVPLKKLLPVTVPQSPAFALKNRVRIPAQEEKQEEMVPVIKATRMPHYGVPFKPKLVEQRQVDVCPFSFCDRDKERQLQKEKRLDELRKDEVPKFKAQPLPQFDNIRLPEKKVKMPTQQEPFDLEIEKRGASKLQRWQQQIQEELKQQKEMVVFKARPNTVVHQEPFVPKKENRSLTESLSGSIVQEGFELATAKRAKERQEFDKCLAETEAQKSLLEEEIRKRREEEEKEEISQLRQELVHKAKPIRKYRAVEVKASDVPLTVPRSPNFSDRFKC
Test: SEC-MALS; Superdex-200-increase 3.2/300 in line with a Wyatt light scattering machine; GFP-TPX2 alone, importin-α/β alone and TPX2 with importin-α/β (TPX2 printed as 5 M, importin-α/β 15 μM); both purified
Conditions: remark: other sources report otherwise

B1: Targeting Protein for XKlp2 (TPX2), full length, wild type, Q6NUF4 1-716 (protein)
chain: T1 chain
  binding: no binding
